The test system of this data set is mSWI/SNF complexes. The data set is described as follows: mSWI/SNF complex purification with HA-tagged baits and mass spectrometry (peptide counts). Further details: species or system human.
Where [1] appears, read: 293_HA-BRD7: HA-BRD7 bait purification, total peptide count per co-purified protein.
[2] abbreviates: 293_HA-BRD7: HA-BRD7 bait purification, unique peptide count per co-purified protein.
The mark [3] stands for this setting: total peptide count of the co-purified protein, 293_HA-BRD9 (HA-BRD9 bait, mass spectrometry), Table 3b.
[4] abbreviates: unique peptide count of the co-purified protein, 293_HA-BRD9 (HA-BRD9 bait, mass spectrometry), Table 3b.
Where [5] appears, read: 293_HA-BRD7 bait purification, mass spectrometry, total peptides per co-purified protein.
Where [6] appears, read: 293_HA-BRD7 bait purification, mass spectrometry, unique peptides per co-purified protein.
The mark [7] stands for this setting: 293_HA-BRD7 bait purification, mass spectrometry, total peptide count per identified protein.
[8] abbreviates: 293_HA-BRD7 bait purification, mass spectrometry, unique peptide count per identified protein.
The mark [9] stands for this setting: 293_HA-DPF2 purification, total peptides.
The mark [10] stands for this setting: 293_HA-DPF2 purification, unique peptides.

For the substance DHX9, the Total is 15 under setting [1] and 1 under setting [3]. The Unique stood at 14 under setting [2] and 1 under setting [4].

The substance VCP registered a Total under setting [5] of 2. Under setting [6], this substance registered a Unique of 2.

Turning to FANCI, the Total under setting [7] stood at 1. Moreover, the Unique under setting [8] is 1.

In turn, CKMT1A gave a Total under setting [1] of 5. In addition, the Unique under setting [2] turned out to be 5.

ZNF638: the Total under setting [1] turned out to be 10. The substance also came in with a Unique under setting [2] of 10.

As for CXorf56, the Total under setting [1] was found to be 4. The Unique under setting [2] stood at 4.

As for TUBB2A, the Total came out at 20 under setting [1], 3 under setting [9] and 2 under setting [3]. Moreover, the Unique under setting [2] came out at 16, the Unique under setting [10] is on record as 3 and the Unique under setting [4] is given as 2.

LAMP2: the Total under setting [7] worked out at 1. Under setting [8], this substance came in with a Unique of 1.

With ARF1, the Total under setting [5] was found to be 2. The Unique under setting [6] stood at 2.

Substance SNRNP200 returned a Total under setting [1] of 20. Also, the Unique under setting [2] came out at 18.

“##SMIM7 (VLNFKLKKKDTQGFGEESREPSTGDNIREFLLSLRYFRIFIALWNIFMMFCMIVLFGS; UniProt Q9BQ49 18-75, looked up)” displayed a Total under setting [7] of 1. The same substance came in with a Unique under setting [8] of 1.

As to PRPF8, the Total by setting is: under setting [1], 22; under setting [9], 3; under setting [3], 3. Moreover, the Unique stood at 22 under setting [2], 3 under setting [10] and 3 under setting [4].

DLST yielded a Total under setting [7] of 1. This substance returned a Unique under setting [8] of 1.

On to ILF2, for which the Total under setting [1] was 8. This substance registered a Unique under setting [2] of 8.

For the substance PHB2, the Total under setting [1] turned out to be 11. Besides, the Unique under setting [2] is 11.

In the case of HSPA8, the Total by setting is: under setting [1], 28; under setting [9], 1; under setting [3], 14. For the same substance, the Unique reads like this: under setting [2], 25; under setting [10], 1; under setting [4], 13.

Under setting [5], CFL1 had a Total of 1. The Unique under setting [6] turned out to be 1.

For the substance HSPB1, under setting [5], the Total was 2. Under setting [6], this substance displayed a Unique of 2.

ERLIN2 gave a Total under setting [5] of 2. Under setting [6], the Unique was determined as 2.

Under setting [5], CLK1 yielded a Total of 3. Under setting [6], this substance showed a Unique of 3.

For PPIB, the Total under setting [5] is 2. Also, the Unique under setting [6] was 2.

In turn, AFG3L2 had a Total under setting [1] of 6. For the same substance, under setting [2], the Unique is given as 6.

Regarding ADCK3, the Total under setting [5] came out at 2. The Unique under setting [6] stood at 2.

As for ABCC1, under setting [7], the Total is 1. In addition, under setting [8], the Unique was 1.

Substance ESYT1 returned a Total under setting [7] of 1. Moreover, under setting [8], the Unique is given as 1.

RFC4 came in with a Total under setting [1] of 8. Further, under setting [2], the Unique came out at 7.

With DES, the Total under setting [7] is recorded as 1. The substance further came in with a Unique under setting [8] of 1.

PPP1CA displayed a Total under setting [5] of 3. Besides, the Unique under setting [6] was determined as 3.

The substance P4HB showed a Total under setting [7] of 1. Also, under setting [8], the Unique is given as 1.

EIF4A1 came in with a Total under setting [5] of 3. Under setting [6], this substance registered a Unique of 3.

In turn, CPSF3L came in with a Total under setting [7] of 1. This substance registered a Unique under setting [8] of 1.

Under setting [7], “TOMM7 (MVKLSKEAKQRLQQLFKGSQFAIRWGFIPLVIYLGFKRGADPGMPEPTVLSLLWG; UniProt Q9P0U1 1-55, looked up)” gave a Total of 1. The same substance came in with a Unique under setting [8] of 1.

Under setting [5], SNRNP70 gave a Total of 2. For the same substance, the Unique under setting [6] worked out at 2.

For TIMM50, under setting [1], the Total is on record as 5. The Unique under setting [2] is recorded as 5.

Turning to KPNA6, under setting [5], the Total is 2. This substance showed a Unique under setting [6] of 2.

Take HSPE1: under setting [7], the Total came out at 1. For the same substance, the Unique under setting [8] amounted to 1.

For ITCH, the Total under setting [7] stood at 1. This substance also registered a Unique under setting [8] of 1.

For the substance CSNK2A1, under setting [7], the Total came out at 1. Further, the Unique under setting [8] worked out at 1.

In the case of ALDH3A2, the Total under setting [7] turned out to be 1. The substance also returned a Unique under setting [8] of 1.

For the substance ABCA9, the Total under setting [7] stood at 1. Under setting [8], this substance registered a Unique of 1.

In turn, CCT6A came in with a Total under setting [5] of 3. This substance gave a Unique under setting [6] of 3.

Turning to PI4KA, the Total under setting [7] is 1. Besides, the Unique under setting [8] is 1.

In turn, NPM1 came in with a Total under setting [1] of 16. Besides, the Unique under setting [2] came to 11.

Take SMARCA2: the Total under setting [1] is recorded as 146, the Total under setting [9] came to 130 and the Total under setting [3] is reported as 49. For the same substance, the Unique under setting [2] is 85, the Unique under setting [10] stood at 74 and the Unique under setting [4] was 27.

Substance TRIM21 yielded a Total under setting [5] of 2. Under setting [6], this substance returned a Unique of 2.

For APOD, the Total under setting [3] came to 1. Besides, the Unique under setting [4] was 1.

VDAC1 came in with a Total under setting [1] of 6. This substance displayed a Unique under setting [2] of 5.

MCM7: the Total is, setting by setting: under setting [1], 16; under setting [9], 1; under setting [3], 6. For the same substance, the Unique was 15 under setting [2], 1 under setting [10] and 6 under setting [4].

Consider HNRNPK, for which the Total under setting [1] is listed as 14. This substance also registered a Unique under setting [2] of 13.

As to SLC7A1, the Total under setting [5] is 2. Further, the Unique under setting [6] was found to be 2.

Regarding SDHA, the Total under setting [5] was 4. Besides, under setting [6], the Unique worked out at 3.

In turn, DDX39B returned a Total under setting [1] of 9. The substance further came in with a Unique under setting [2] of 8.

NSA2: the Total under setting [5] amounted to 3. Besides, under setting [6], the Unique is on record as 3.

On to DNAJB1, for which the Total under setting [7] turned out to be 1. The substance also gave a Unique under setting [8] of 1.

##ATP1A2 registered a Total under setting [7] of 1. Under setting [8], this substance displayed a Unique of 1.

Consider AIFM1, for which the Total by setting is: under setting [1], 19; under setting [3], 6. Moreover, the Unique turned out to be 17 under setting [2] and 6 under setting [4].

HNRNPAB: the Total was 1 under setting [7] and 3 under setting [5]. The Unique was found to be 1 under setting [8] and 3 under setting [6].

For MDN1, the Total under setting [5] came to 1. For the same substance, the Unique under setting [6] turned out to be 1.

In turn, ATP5H registered a Total under setting [1] of 6. The substance also had a Unique under setting [2] of 6.

Under setting [7], HDAC1 had a Total of 1. Also, under setting [8], the Unique amounted to 1.

On to GPR141, for which the Total under setting [7] worked out at 1. The substance also displayed a Unique under setting [8] of 1.

Under setting [5], ERCC4 had a Total of 2. Also, the Unique under setting [6] is listed as 1.

Substance CLTC came in with a Total under setting [1] of 5. The substance also yielded a Unique under setting [2] of 5.

Under setting [7], SMARCA5 returned a Total of 1. In addition, under setting [8], the Unique was 1.

Substance TECR showed a Total under setting [5] of 4. The substance also registered a Unique under setting [6] of 4.

Under setting [5], MCM6 showed a Total of 2. Besides, the Unique under setting [6] is 2.

As for LAS1L, the Total under setting [5] is 4. Further, the Unique under setting [6] is 4.

In the case of RFC3, the Total under setting [7] is listed as 1. For the same substance, under setting [8], the Unique was found to be 1.

Substance EMC1 came in with a Total under setting [5] of 3. Under setting [6], this substance returned a Unique of 3.

For the substance KARS, under setting [5], the Total is on record as 2. Under setting [6], this substance gave a Unique of 1.

RBM25 came in with a Total under setting [5] of 4. The same substance returned a Unique under setting [6] of 4.

Regarding KLF12, under setting [5], the Total was 2. Moreover, the Unique under setting [6] is reported as 1.

As for HSPA1A, the Total is 20 under setting [1] and 9 under setting [3]. This substance displayed a Unique under setting [2] of 19 and a Unique under setting [4] of 8.

Take DDX21: the Total is, setting by setting: under setting [1], 18; under setting [3], 6. This substance also displayed a Unique under setting [2] of 17 and a Unique under setting [4] of 6.

On to DDX54, for which, under setting [1], the Total came to 29. Besides, the Unique under setting [2] turned out to be 26.

With EMD, the Total under setting [1] is 5. The Unique under setting [2] turned out to be 5.

For BCLAF1, the Total under setting [7] turned out to be 1. Besides, the Unique under setting [8] amounted to 1.

For PSMA2, the Total under setting [7] came out at 1. Also, the Unique under setting [8] is 1.

As for PSMC3, the Total under setting [7] came to 1. The substance further gave a Unique under setting [8] of 1.

With GRWD1, the Total under setting [5] is given as 1. Under setting [6], this substance yielded a Unique of 1.

On to YARS, for which the Total under setting [5] came out at 3. The Unique under setting [6] is listed as 3.

TM9SF2 returned a Total under setting [7] of 1. The substance further came in with a Unique under setting [8] of 1.

As for KPNA1, under setting [1], the Total is given as 4. The Unique under setting [2] was 4.

Regarding HEATR1, the Total was 3 under setting [5] and 1 under setting [3]. Also, the Unique under setting [6] turned out to be 3 and the Unique under setting [4] was found to be 1.

In turn, CCT3 yielded a Total under setting [5] of 3. Moreover, the Unique under setting [6] is 3.

For the substance MSH6, the Total under setting [1] came to 20, the Total under setting [9] was 1 and the Total under setting [3] is recorded as 7. Also, the Unique is recorded as 18 under setting [2], 1 under setting [10] and 7 under setting [4].

As to DLD, under setting [1], the Total came to 9. Under setting [2], this substance came in with a Unique of 9.

NUP205: the Total by setting is: under setting [1], 8; under setting [3], 5. For the same substance, the Unique is, setting by setting: under setting [2], 7; under setting [4], 5.

PRKDC returned a Total under setting [1] of 66 and a Total under setting [3] of 31. Also, the Unique was determined as 64 under setting [2] and 27 under setting [4].

Under setting [5], SUCLG1 displayed a Total of 3. Under setting [6], this substance returned a Unique of 3.

As for TOMM40, the Total under setting [7] amounted to 1. The substance also gave a Unique under setting [8] of 1.

The values above are taken from patent publication US12729225B2, “Non-canonical SWI/SNF complex and uses thereof” (Dana-Farber Cancer Institute, Inc., priority 2018, dated 2026).
